# Data reported in article PMC4914967, “An evolutionarily conserved SSNA1/DIP13 homologue is a component of both basal and apical complexes of Toxoplasma gondii” (Scientific Reports, 2016).
# No constants are given. Whether binding was seen depends on the method and setting. Some binding calls cover weakened binding; strength is not graded here.
# B1: His-tagged recombinant TgDIP13 (Toxoplasma gondii SSNA1/DIP13 homologue) (natural protein, UniProt A0A125YRV3 1-150, looked up)
# chain: MTSTTNSNLHNYNHELVACIDDLRRKREEVHRQIIKEEEDRAKVQKEIALLQERLQKLNDSITRKIQARNEYDKTILETEAAYTKILESAQTLLHVLKRESVHLGRKTSGDRAELPGIGITGVGVDYSPNSVSELSHRRAEKGKPTAGAG
# notes: TgDIP13, the SSNA1/DIP13 homologue of Toxoplasma gondii (ToxoDB entry TGME49_295450); the TgDIP13 gene was amplified from T. gondii cDNA with primers ML2448/ML2449 and cloned NdeI/XhoI into pET24a+; Apparent mass of the monomer ~18 kDa; also called T. gondii SSNA1/DIP13 homologue; not shown: His6, C-terminal, kept
# Biological target: His-tagged recombinant TgDIP13 (Toxoplasma gondii SSNA1/DIP13 homologue) (Toxoplasma gondii)
# Test: negative-stain transmission electron microscopy; purified recombinant TgDIP13 at 10 mg/ml in 6 M urea buffer, diluted 1:10 in 30 mM MOPS pH 7.0 or 0.1 M acetate buffer pH 3.5, incubated 24 hours at 37 °C, diluted to 0.1 mg/ml, stained with 1% uranyl acetate; self-assembly seemed favored at neutral over acidic pH; both purified
binder,measurement,value
B1,binding,binds
